Measured values: publication PMC5133863

Target: T1, Glucocorticoid receptor (GR) (UniProt P06536)
T1 sequence (looked up, limits assumed): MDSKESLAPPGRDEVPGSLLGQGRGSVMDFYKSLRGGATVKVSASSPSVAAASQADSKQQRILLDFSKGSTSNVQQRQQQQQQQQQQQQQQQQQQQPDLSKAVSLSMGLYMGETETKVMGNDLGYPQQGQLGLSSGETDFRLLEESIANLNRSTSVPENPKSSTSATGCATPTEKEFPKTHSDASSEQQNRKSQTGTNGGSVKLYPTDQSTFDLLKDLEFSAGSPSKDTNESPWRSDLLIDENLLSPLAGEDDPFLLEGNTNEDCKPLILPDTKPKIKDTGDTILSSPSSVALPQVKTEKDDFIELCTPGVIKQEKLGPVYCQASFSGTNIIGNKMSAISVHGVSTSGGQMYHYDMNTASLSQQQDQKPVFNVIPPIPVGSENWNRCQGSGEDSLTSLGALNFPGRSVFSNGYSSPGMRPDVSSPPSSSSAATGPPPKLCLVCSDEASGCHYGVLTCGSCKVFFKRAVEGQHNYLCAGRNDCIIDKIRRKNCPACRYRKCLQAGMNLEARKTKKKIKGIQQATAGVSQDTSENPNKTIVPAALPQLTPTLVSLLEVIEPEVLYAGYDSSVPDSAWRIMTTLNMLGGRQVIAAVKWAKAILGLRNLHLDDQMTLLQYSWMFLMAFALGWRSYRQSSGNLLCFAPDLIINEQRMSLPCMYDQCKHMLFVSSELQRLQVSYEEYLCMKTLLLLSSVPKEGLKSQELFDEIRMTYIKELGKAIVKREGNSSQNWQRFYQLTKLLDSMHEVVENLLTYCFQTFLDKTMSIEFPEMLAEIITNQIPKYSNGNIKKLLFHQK
Assay: EMSA with immunoblot of the gel (anti-GR)
Conditions: 5 mM MgCl2, 50 nM probe, 2.5 ug nuclear extract; 10 mM Tris pH 7.5, 50 mM NaCl, 1 mM DTT (binding buffer), plus 5 mM MgCl2, 2.5 mM DTT, 0.25% Tween 20, 0.2% NP-40, 50 ng sheared salmon sperm DNA; 20 min on ice; protein in an extract; label: 5'-biotin on sense and antisense strands

Row | Sequence | binding result
1 | CCTTCAGGCTTAACAGCACCATCCAGAT (double strand) [Mutated nGRE probe] | no binding
2 | CCTTCAGGCTTGACAGTGACCTCCAGAT (double strand) [WT nGRE probe (cGH intron 1)] | binds

The exact form of at least one protein or probe is not confirmed. Where cells or extracts were used, other partners may take part. Negatives hold for the conditions tested. Tags and fusion partners may be left off the protein sequences shown.
